Results as given in patent JP2016028048A.
Results are given in words; binding and its absence hold for the method and conditions named. Some binding calls cover weakened binding; strength is not graded here.

Sequences of proteins named here, by UniProt entry; tags and fusion partners are left off. Residues count along the entry.
UniProt P10646, residues 29-304: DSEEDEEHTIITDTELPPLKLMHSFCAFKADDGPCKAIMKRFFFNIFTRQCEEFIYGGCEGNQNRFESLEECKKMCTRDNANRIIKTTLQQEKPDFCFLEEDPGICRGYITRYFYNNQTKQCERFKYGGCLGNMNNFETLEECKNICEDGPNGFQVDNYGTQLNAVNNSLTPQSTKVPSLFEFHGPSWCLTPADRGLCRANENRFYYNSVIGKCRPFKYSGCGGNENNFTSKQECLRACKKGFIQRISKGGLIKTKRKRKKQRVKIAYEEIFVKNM

B1: TP-2G6 (Fab, V domains shown)
VH: QVQLQQSGPGLVKPSQTLSLTCAISGDSVSSSSAAWSWIRQSPGRGLEWLGIIYYRSKWYNDYAVSVKSRITINPDTSKNQFSLQLNSVTPEDTAVYYCARHSMVGFDVWGQGTLVTVSS
VL: DIVLTQSPATLSLSPGERATLSCRASQYVTSSYLAWYQQKPGQAPRLLIYGSSRATGVPARFSGSGSGTDFTLTISSLEPEDFATYYCQQYSSSPITFGQGTKVEIKR
B2: TP-4H8 (Fab, V domains shown)
VH: QVQLVESGGGLVQPGGSLRLSCAASGFTFSDHAMHWVRQAPGKGLEWVSVIEYSGSKTNYADSVKGRFTISRDNSKNTLYLQMNSLRAEDTAVYYCARGDYYPYLVFAIWGQGTLVTVSS
VL: DIELTQPPSVSVAPGQTARISCSGDSIGKKYVHWYQQKPGQAPVLVIYGDNNRPSGIPERFSGSNSGNTATLTISGTQAEDEADYYCSTADSVITYKNVFGGGTKLTVLG
B3: TP-4E8 (Fab, V domains shown)
VH: QVQLVESGGGLVQPGGSLRLSCAASGFTFNDYAMSWVRQAPGKGLEWVSLIESVSSSTYYADSVKGRFTISRDNSKNTLYLQMNSLRAEDTAVYYCARTIGVLWDDVWGQGTLVTVSS
VL: DIELTQPPSVSVAPGQTARISCSGDALGSKYVSWYQQKPGQAPVLVIYGDNKRPSGIPERFSGSNSGNTATLTISGTQAEDEADYYCQSYTYSLNQVFGGGTKLTVLG
B4: TP-4G8 (Fab, V domains shown)
VH: QVQLVESGGGLVQPGGSLRLSCAASGFTFSTYAMHWVRQAPGKGLEWVSTISGYGSFTYYADSVKGRFTISRDNSKNTLYLQMNSLRAEDTAVYYCARNGRKYGQMDNWGQGTLVTVSS
VL: DIELTQPPSVSVAPGQTARISCSGDKLGSKSVHWYQQKPGQAPVLVIYRDTDRPSGIPERFSGSNSGNTATLTISGTQAEDEADYYCQTYDYILNVFGGGTKLTVLG
B5: TP-4A9 (Fab, V domains shown)
VH: QVQLVESGGGLVQPGGSLRLSCAASGFTFSSYGMSWVRQAPGKGLEWVSLISGVSSSTYYADSVKGRFTISRDNSKNTLYLQMNSLRAEDTAVYYCARSYLGYFDVWGQGTLVTVSS
VL: DIELTQPPSVSVAPGQTARISCSGDALGKYYASWYQQKPGQAPVLVIYGDNKRPSGIPERFSGSNSGNTATLTISGTQAEDEADYYCQSYTTRSLVFGGGTKLTVLG

target: ヒト組織因子経路インヒビター (human TFPI) (human) (UniProt P10646); assay: ELISA, Fab in bacterial lysate on human TFPI-coated plate

binding	Binder
binds	B1
binds	B2
binds	B3
binds	B4
binds	B5
